PubChem BioAssay AID652243, Drosophila RNAi Screening Center | 2013
The screen tested about 24,000 reagents; shown is an unselected part of those that have a named target and a result. Over the whole deposit, 246 (1%) got an active call. 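Plates not normalised; calls are printed but the firefly/Renilla ratio behind them is not deposited; fold cut for lowering reported inconsistently.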 Raw values vary from plate to plate and are shown uncorrected. Unmarked entries are inactive. Reagents against one gene are numbered here. A plus sign joins genes that one reagent is predicted to hit. Not given: the amount of reagent.

- Aim: 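Knock-downs that decrease or increase androgen receptor reporter signal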 (primary screen)
- Cells: Drosophila S2R+ cells
- Reagent: long dsRNA against Drosophila genes
- Timing: 72 h (48 h, then 24 h hormone)
- Conditions: synthetic androgen R1881 at 10 nM for 24 h
- Detection: 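Per-well raw luminescence of the androgen-driven firefly reporter and of the Renilla control, two replicates each, without normalisation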
- Scale: firefly reporter light: higher = more light from androgen-responsive reporter; Renilla control light: higher = more constitutive control signal (cell number, transfection)
- Rule for the call: 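Across duplicate plates, a knock-down whose log firefly/Renilla ratio shifted a set fold down or up from the GFP/LacZ control mean was a hit; the downward cut appears as both 1.5 and 3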
- Calls: active = hit: reporter lowered or raised; inactive = no hit

Target gene	reagent no.	firefly reporter light, replicate 1	firefly reporter light, replicate 2	Renilla control light, replicate 1	Renilla control light, replicate 2
CG5921	1	6.97e5	8.69e5	1.07e6	1.05e6
CG5921	2	1.74e5	1.47e5	1.91e6	1.88e6
CG5921	3	2.16e5	2.49e5	5.09e5	8.49e5
Tom70	1	3.75e5	4.63e5	2.39e6	1.91e6
Ir76a + CG14102	1	8.90e5	7.01e5	2.26e6	2.30e6
Rbcn-3A	1	3.46e5	3.33e5	2.87e6	2.20e6
Rbcn-3A	2	8.42e5	1.34e6	1.81e6	1.57e6
CG33293	1	1.18e6	9.92e5	2.09e6	2.41e6
nemy	1	1.99e5	2.12e5	4.01e5	4.35e5
nemy	2	9.34e5	1.04e6	1.07e6	1.31e6
nemy	3	2.74e5	2.00e5	4.97e5	5.06e5
fidipidine	1	1.10e5	1.34e5	1.90e6	1.90e6
fidipidine	2	5.38e5	3.78e5	6.06e5	4.76e5
OtopLa	1	3.80e5	3.95e5	3.50e6	3.81e6
OtopLa	2	8.64e5	7.74e5	1.34e6	1.57e6
OtopLa	3	8.11e5	4.67e5	1.58e6	1.36e6
CG6785	1	3.24e5	3.58e5	8.07e5	1.09e6
CG6785	2	7.31e5	8.16e5	9.42e5	1.16e6
peng	1	1.82e5	1.40e5	6.69e5	4.90e5
peng	2	4.87e5	5.92e5	7.25e5	7.25e5
spz	1	91962	82525	8.14e5	1.02e6
spz	2	3.41e5	4.04e5	9.58e5	1.02e6
spz	3	1.42e6	1.11e6	2.32e6	1.90e6
Elp3	1	89766	1.03e5	5.54e5	9.85e5
pip	1	2.21e5	1.88e5	2.97e6	1.52e6
pip	2	1.03e6	8.95e5	2.33e6	1.70e6
CG15047	1	3.73e5	3.66e5	2.36e6	2.41e6
CG15047	2	6.72e5	7.68e5	1.80e6	1.65e6
CG15047	3	4.03e5	3.90e5	5.80e5	6.19e5
CG1486	1	1.16e5	1.12e5	9.32e5	8.55e5
CG1486	2	6.01e5	5.43e5	1.61e6	1.11e6
CG31301	1	5.81e5	4.66e5	1.26e6	1.13e6
drosha	1	1.20e6	5.97e5	2.31e6	9.56e5
RpL36A	1	2.18e5	2.05e5	1.16e6	1.19e6
RpL36A	2	2.82e5	2.09e5	3.09e5	3.31e5
CG3165	1	7.93e5	8.60e5	2.39e6	1.98e6
Ir84a	1	33785	48494	1.17e6	9.86e5
Ir84a	2	2.13e5	2.25e5	6.37e5	7.73e5
CG14022	1	1.15e5	1.17e5	1.41e6	1.47e6
CG14022	2	2.98e5	2.79e5	7.85e5	6.48e5

Targets listed so far whose gene name begins with O or o (3):
Target gene	reagent no.	firefly reporter light, replicate 1	firefly reporter light, replicate 2	Renilla control light, replicate 1	Renilla control light, replicate 2
OtopLa	1	3.80e5	3.95e5	3.50e6	3.81e6
OtopLa	2	8.64e5	7.74e5	1.34e6	1.57e6
OtopLa	3	8.11e5	4.67e5	1.58e6	1.36e6
